From the supplement of paper PMC7646827
Counter-ions that a name gives are not always drawn. Single values are uncertain, as repeats are few or missing.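 All cells are established human bladder cancer lines, one of them grown from a patient-derived xenograft. Viability was read by a luminescent ATP assay as percent inhibition versus vehicle over a seven-point dilution series; the paper calls scores above 59 very active, 30–59 active, 21–29 semi-active, 9–20 low active and below 9 inactive.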

Experiments:
Assay in all cases: drug sensitivity score DSS3 (score 0-100); higher = more sensitive; extreme values may be limits of the assay
Conditions in all cases: culture: 3D, ultra-low attachment; treatment time: 5 days
[1] = test system: UM-UC-5
[2] = test system: TCCSUP
[3] = test system: T-24
[4] = test system: 5637
[5] = test system: UM-UC-18
[6] = test system: UM-UC-6
[7] = test system: UM-UC-15
[8] = test system: UM-UC-14
[9] = test system: J82
[10] = test system: UM-UC-3
[11] = test system: UM-UC-17
[12] = test system: SCaBER
[13] = test system: UM-UC-12
[14] = test system: SW780
[15] = test system: BC8149
[16] = test system: UM-UC-9
[17] = test system: UM-UC-1

Structure (SMILES) | drug sensitivity score DSS3 [1] | drug sensitivity score DSS3 [2] | drug sensitivity score DSS3 [3] | drug sensitivity score DSS3 [4] | drug sensitivity score DSS3 [5] | drug sensitivity score DSS3 [6] | drug sensitivity score DSS3 [7] | drug sensitivity score DSS3 [8] | drug sensitivity score DSS3 [9] | drug sensitivity score DSS3 [10] | drug sensitivity score DSS3 [11] | drug sensitivity score DSS3 [12] | drug sensitivity score DSS3 [13] | drug sensitivity score DSS3 [14] | drug sensitivity score DSS3 [15] | drug sensitivity score DSS3 [16] | drug sensitivity score DSS3 [17]
CNC(=O)c1ccc(N2C(=S)N(c3cnc(C#N)c(C(F)(F)F)c3)C(=O)C23CCC3)cc1F [apalutamide] (max dose 10000 nM) | 0 | 0 | 0 | 0 | 0.209 | 0 | 0 | 0 | 0 | 0 | 0 | 0 | 0 | 0 | 0 | 0 | 0
Clc1ccc(CCCOCCCN2CCCCC2)cc1 [Pitolisant hydrochloride] (max dose 10000 nM) | 0.0775 | 0 | 0 | 0 | 0 | 1.84 | 0 | 0 | 0 | 0 | 0 | 0 | 0.125 | 0.441 | 0.105 | 0 | 0
CCc1cncnc1N1CCN(Cc2nc3ccc(C(F)(F)F)cc3[nH]2)CC1 (max dose 10000 nM) | 0 | 6.68 | 3.58 | 3.38 | 0 | 0 | 0 | 1.64 | 0.513 | 0.9 | 0 | 1.32 | 2.37 | 0 | 0 | 0 | 2.14
O=C(Nc1ccccc1Br)N[C@@H]1CCN(c2ccc(C(F)(F)F)cn2)C1 (max dose 10000 nM) | 0 | 0 | 0 | 0 | 0 | 0 | 2.05 | 0 | 0 | 0 | 0 | 0 | 0 | 0 | 0 | 0 | 37.3
O=C1NCCCc2c1oc1ccc(O)cc21 (max dose 10000 nM) | 0 | 0.0227 | 0 | 0 | 0.744 | 0 | 10.8 | 0 | 0 | 4.77 | 0 | 0 | 1.08 | 0 | 0 | 0 | 0
CC[C@H](Nc1ncnc2[nH]cnc12)c1nc2cccc(F)c2c(=O)n1-c1ccccc1 [CAL-101 (Idelalisib, GS-1101)] (max dose 10000 nM) | 0 | 0 | 0 | 0 | 0 | 0 | 0 | 0 | 0 | 0 | 0 | 0 | 0 | 0 | 8.1e-05 | 0 | 0
N[C@@H](CSCCB(O)O)C(=O)O [BEC HCl] (max dose 10000 nM) | 0 | 5.71 | 0 | 4.41 | 0 | 1.82 | 39.5 | 0.663 | 0 | 0 | 0 | 0 | 3.22 | 0 | 0 | 0 | 0
O=C(COc1ccc(Cl)cc1)NC1CCC(NC(=O)COc2ccc(Cl)cc2)CC1 (stereo not drawn) [ISRIB (trans-isomer)] (max dose 10000 nM) | 0 | 0 | 0 | 0 | 0.374 | 0 | 0 | 0 | 0 | 0 | 0 | 0 | 0 | 0 | 0 | 0 | 0
CC(C)Cc1ccc([C@@H](C)C(=O)NS(C)(=O)=O)cc1 [Reparixin (Repertaxin)] (max dose 10000 nM) | 0 | 0 | 0 | 0 | 0 | 0 | 16 | 0 | 0 | 0 | 0 | 0 | 0 | 0 | 0 | 0 | 0
OC(CNCC(O)C1CCc2cc(F)ccc2O1)C1CCc2cc(F)ccc2O1 (centres undefined) [Nebivolol HCl] (max dose 10000 nM) | 0 | 0 | 0 | 0 | 0 | 0 | 1.56 | 0 | 0 | 0 | 0 | 0 | 0 | 0 | 0 | 0 | 0
Cc1cccc(-c2[nH]c(C(C)(C)C)nc2-c2ccc3nccnc3c2)n1 (max dose 10000 nM) | 0 | 0 | 0.0283 | 0.308 | 0.0889 | 0 | 0 | 0 | 0 | 0.589 | 0 | 0 | 0.94 | 0 | 0 | 0 | 0
C[C@]1(c2nc3c(C(N)=O)cccc3[nH]2)CCCN1 [Veliparib (ABT-888)] (max dose 10000 nM) | 0 | 1.07 | 0.0608 | 1.05 | 2.45 | 0 | 0 | 0.334 | 0 | 0.0586 | 0 | 0 | 0 | 0 | 0.789 | 0 | 0

Two entries from above, reformatted.
Structure (SMILES)	drug sensitivity score DSS3 [1]	drug sensitivity score DSS3 [2]	drug sensitivity score DSS3 [3]	drug sensitivity score DSS3 [4]	drug sensitivity score DSS3 [5]	drug sensitivity score DSS3 [6]	drug sensitivity score DSS3 [7]	drug sensitivity score DSS3 [8]	drug sensitivity score DSS3 [9]	drug sensitivity score DSS3 [10]	drug sensitivity score DSS3 [11]	drug sensitivity score DSS3 [12]	drug sensitivity score DSS3 [13]	drug sensitivity score DSS3 [14]	drug sensitivity score DSS3 [15]	drug sensitivity score DSS3 [16]	drug sensitivity score DSS3 [17]
CC[C@H](Nc1ncnc2[nH]cnc12)c1nc2cccc(F)c2c(=O)n1-c1ccccc1 [CAL-101 (Idelalisib, GS-1101)] (max dose 10000 nM)	0	0	0	0	0	0	0	0	0	0	0	0	0	0	8.1e-05	0	0
CC(C)Cc1ccc([C@@H](C)C(=O)NS(C)(=O)=O)cc1 [Reparixin (Repertaxin)] (max dose 10000 nM)	0	0	0	0	0	0	16	0	0	0	0	0	0	0	0	0	0
